Earlier results, collected in patent publication EP1017675B1, “HIGHLY LIPOPHILIC CAMPTOTHECIN DERIVATIVES” (BIONUMERIK PHARMACEUTICALS, INC., priority 1997, dated 1998).

Conditions: lactone form

## CC[C@@]1(O)C(=O)OCc2c1cc1n(c2=O)Cc2cc3ccccc3nc2-1 [CPT lactone, Camptothecin]
  water solubility: about 1 µg/mL
